PubChem BioAssay AID1259405 – NCATS – 2018

Aim: 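Knock-downs that lift recombinant protein yield in hamster ovary cells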 (primary screen)
Cell system: Chinese hamster CHO-K1 ovary cells with stable secreted eGFP expression
Reagent: single siRNA against mouse genes, 0.8 pmol siRNA per well (2 µl of 400 nM stock)
Timing: 3 days
Measurement: 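Percent of the per-plate non-targeting control median for intracellular GFP per well by laser scanning cytometry and for cell viability by ATP luminescence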
Reading the numbers: GFP, % of control: higher = more GFP per well, higher productivity; viability (ATP), % of control: higher = more viable cells (more ATP)
Active means: 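a knock-down is called active if GFP reaches 120% or more of non-targeting control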
Shown is one part, drawn at random, of about 50,000 reagents tested. About 4,000 of them (8%) were called active. 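Mouse siRNA library applied to hamster cells; one well for each siRNA.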 The numbers tell different reagents against one gene apart.

gene symbol	reagent no.	GFP, % of control	viability (ATP), % of control	Call
Nog (noggin)	1	35.4	37.6	inactive
Nog (noggin)	2	103	86.7	inactive
Nog (noggin)	3	69.9	61.6	inactive
Clec4n (C-type lectin domain family 4, member n)	1	80.6	54.8	inactive
Clec4n (C-type lectin domain family 4, member n)	2	88.8	41.1	inactive
Clec4n (C-type lectin domain family 4, member n)	3	69.4	59.2	inactive
Gc (vitamin D binding protein)	1	112	94.6	inactive
Gc (vitamin D binding protein)	2	74.8	39.8	inactive
Gc (vitamin D binding protein)	3	105	91.5	inactive
Nhsl3 (NHS like 3)	1	83	82.2	inactive
Nhsl3 (NHS like 3)	2	115	26	inactive
Nhsl3 (NHS like 3)	3	91.6	108	inactive
Or4d2b (olfactory receptor family 4 subfamily D member 2B)	1	92.1	81.4	inactive
Or4d2b (olfactory receptor family 4 subfamily D member 2B)	2	71.7	68.9	inactive
Or4d2b (olfactory receptor family 4 subfamily D member 2B)	3	131	111	active
Esm1 (endothelial cell-specific molecule 1)	1	45.9	50.9	inactive
Esm1 (endothelial cell-specific molecule 1)	2	77.4	70.5	inactive
Esm1 (endothelial cell-specific molecule 1)	3	75.7	100	inactive
Pfkfb1 (6-phosphofructo-2-kinase/fructose-2,6-biphosphatase 1)	1	52.2	74.8	inactive
Pfkfb1 (6-phosphofructo-2-kinase/fructose-2,6-biphosphatase 1)	2	82	77.3	inactive
Pfkfb1 (6-phosphofructo-2-kinase/fructose-2,6-biphosphatase 1)	3	90.1	88.1	inactive
Slc28a3	1	65.1	58.1	inactive
Slc28a3	2	76.2	95.3	inactive
Slc28a3	3	85.9	91.6	inactive
Rrm1 (ribonucleotide reductase M1)	1	127	122	active
Rrm1 (ribonucleotide reductase M1)	2	86.8	54.6	inactive
Rrm1 (ribonucleotide reductase M1)	3	50.2	23	inactive
Ddx20 (DEAD box helicase 20)	1	75.6	79.3	inactive
Ddx20 (DEAD box helicase 20)	2	99.3	76.8	inactive
Ddx20 (DEAD box helicase 20)	3	57.5	100	inactive
Med31 (mediator complex subunit 31)	1	62.3	76.7	inactive
Med31 (mediator complex subunit 31)	2	55.1	73.5	inactive
Med31 (mediator complex subunit 31)	3	57.4	65.5	inactive
Pltp (phospholipid transfer protein)	1	108	86	inactive
Pltp (phospholipid transfer protein)	2	126	128	active
Pltp (phospholipid transfer protein)	3	81.7	118	inactive

12 entries from above, showing only “GFP, % of control”.
Pfkfb1 (6-phosphofructo-2-kinase/fructose-2,6-biphosphatase 1) #2: 82
Pfkfb1 (6-phosphofructo-2-kinase/fructose-2,6-biphosphatase 1) #3: 90.1
Slc28a3 #1: 65.1
Slc28a3 #2: 76.2
Slc28a3 #3: 85.9
Rrm1 (ribonucleotide reductase M1) #1: 127
Rrm1 (ribonucleotide reductase M1) #2: 86.8
Rrm1 (ribonucleotide reductase M1) #3: 50.2
Ddx20 (DEAD box helicase 20) #1: 75.6
Ddx20 (DEAD box helicase 20) #2: 99.3
Ddx20 (DEAD box helicase 20) #3: 57.5
Med31 (mediator complex subunit 31) #1: 62.3

The listing continues:
gene symbol	reagent no.	GFP, % of control	viability (ATP), % of control	Call
B3galt2	1	107	106	inactive
B3galt2	2	188	46.7	active
B3galt2	3	111	111	inactive
Il36rn (interleukin 36 receptor antagonist)	1	59.7	63.8	inactive
Il36rn (interleukin 36 receptor antagonist)	2	75.7	87.1	inactive
Il36rn (interleukin 36 receptor antagonist)	3	69.9	51.3	inactive
Sema4d	1	115	96.1	inactive
Sema4d	2	86.4	81.2	inactive
Sema4d	3	67.9	89.3	inactive
Utp4 (UTP4 small subunit processome component)	1	51	53.6	inactive
Utp4 (UTP4 small subunit processome component)	2	147	151	active
Utp4 (UTP4 small subunit processome component)	3	64.3	103	inactive
Fmo4 (flavin containing monooxygenase 4)	1	70.8	73	inactive
Fmo4 (flavin containing monooxygenase 4)	2	61	43.5	inactive
Fmo4 (flavin containing monooxygenase 4)	3	133	106	active
Gm11541 (predicted gene 11541)	1	41.5	72.5	inactive
Gm11541 (predicted gene 11541)	2	29.8	28	inactive
Gm11541 (predicted gene 11541)	3	92.2	84.6	inactive
Cd22 (CD22 antigen)	1	100	99.9	inactive
Cd22 (CD22 antigen)	2	83.2	85.2	inactive
Cd22 (CD22 antigen)	3	93.3	90.7	inactive
Tedc1 (tubulin epsilon and delta complex 1)	1	70.7	47.9	inactive
Tedc1 (tubulin epsilon and delta complex 1)	2	64.5	66.5	inactive
Tedc1 (tubulin epsilon and delta complex 1)	3	58.6	52.7	inactive
Zfp521 (zinc finger protein 521)	1	59	52.6	inactive
Zfp521 (zinc finger protein 521)	2	55.3	65.2	inactive
Zfp521 (zinc finger protein 521)	3	75.7	88.7	inactive
B3galt5	1	130	90.1	active
B3galt5	2	106	130	inactive
B3galt5	3	101	131	inactive
Snw1 (SNW domain containing 1)	1	84.8	85.2	inactive
Snw1 (SNW domain containing 1)	2	89.8	53.2	inactive
Sirt7 (sirtuin 7)	1	70	64.5	inactive
Sirt7 (sirtuin 7)	2	71.7	66.2	inactive
Sirt7 (sirtuin 7)	3	111	69.4	inactive
Ifit1 (interferon-induced protein with tetratricopeptide repeats 1)	1	69.2	87.1	inactive
Ifit1 (interferon-induced protein with tetratricopeptide repeats 1)	2	65.5	75	inactive
Ifit1 (interferon-induced protein with tetratricopeptide repeats 1)	3	116	80	inactive
Plxnb3 (plexin B3)	1	81.4	71.3	inactive
Taf9b (TATA-box binding protein associated factor 9B)	1	74.8	61.8	inactive
Taf9b (TATA-box binding protein associated factor 9B)	2	74.8	61.8	inactive
Cadm1 (cell adhesion molecule 1)	1	144	105	active
Cadm1 (cell adhesion molecule 1)	2	52.8	61.3	inactive
Cadm1 (cell adhesion molecule 1)	3	84.8	74.8	inactive
Or2t29 (olfactory receptor family 2 subfamily T member 29)	1	94.9	79.1	inactive
Or2t29 (olfactory receptor family 2 subfamily T member 29)	2	97.5	98.3	inactive
Or2t29 (olfactory receptor family 2 subfamily T member 29)	3	52.8	67	inactive
B130024G19Rik (RIKEN cDNA B130024G19 gene)	1	32.1	66	inactive
B130024G19Rik (RIKEN cDNA B130024G19 gene)	2	56.1	61.7	inactive
B130024G19Rik (RIKEN cDNA B130024G19 gene)	3	18.3	41.5	inactive
